According to PMC7982817:
These are yes or no findings as the source states them, for the method shown. In cells and extracts the contact can be indirect. Some entries that bind do so weakly or less than the wild type.

Protein sequences, listed by entry. Tags and fused reporters are not part of them. Lines headed by an entry give the natural chain unless they say otherwise; changes in a name come on top.
UniProt P29351: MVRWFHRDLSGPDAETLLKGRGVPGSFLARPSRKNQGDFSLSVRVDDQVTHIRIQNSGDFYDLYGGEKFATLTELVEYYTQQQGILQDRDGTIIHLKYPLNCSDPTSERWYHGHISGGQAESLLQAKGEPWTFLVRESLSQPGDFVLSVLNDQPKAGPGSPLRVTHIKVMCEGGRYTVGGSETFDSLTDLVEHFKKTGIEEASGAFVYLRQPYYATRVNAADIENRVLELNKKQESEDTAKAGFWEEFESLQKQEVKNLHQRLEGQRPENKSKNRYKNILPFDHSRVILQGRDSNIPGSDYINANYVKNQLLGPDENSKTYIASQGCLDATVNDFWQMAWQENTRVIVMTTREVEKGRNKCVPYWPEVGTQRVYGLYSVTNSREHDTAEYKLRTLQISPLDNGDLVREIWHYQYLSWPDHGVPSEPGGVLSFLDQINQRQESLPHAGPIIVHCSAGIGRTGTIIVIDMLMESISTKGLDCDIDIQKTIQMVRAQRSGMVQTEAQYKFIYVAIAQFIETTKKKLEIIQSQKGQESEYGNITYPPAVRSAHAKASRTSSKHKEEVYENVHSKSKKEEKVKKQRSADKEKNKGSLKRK

What was measured:
[1] = biological target: SHP1 (mouse (endogenous in J774A.1 and BMDM)) (UniProt P29351); experiment: co-IP; J774A.1 lysates (500 ug/lane), uninfected or L. donovani infected (2 h); antibody 1:100 overnight at 4 C, Sepharose-4B-protein-A, PBS washes, immunoblot; also after MALII pre-treatment, infection with neuraminidase-treated parasites, Neu1 overexpression, siglec-E siRNA or both together; IgG lane as negative control
[2] = biological target: SHP1 (mouse (endogenous in J774A.1 and BMDM)) (UniProt P29351); experiment: co-IP; BMDM lysates (150 ug/lane), uninfected or L. donovani infected; antibody 1:100 overnight at 4 C, Sepharose-4B-protein-A, immunoblot; also after Neu1 overexpression and siglec-E siRNA together

binding [1]: binds | binding [2]: binds
B1: siglec-E (receptor, UniProt Q91Y57 19-467)
chain: QNPQEVFTLNVERKVVVQEGLCVLVPCNFSYLKKRLTDWTDSDPVHGFWYREGTDRRKDSIVATNNPIRKAVKETRNRFFLLGDPWRNDCSLNIREIRKKDAGLYFFRLERGKTKYNYMWDKMTLVVTALTNTPQILLPETLEAGHPSNLTCSVPWDCGWTAPPIFSWTGTSVSFLSTNTTGSSVLTITPQPQDHGTNLTCQVTLPGTNVSTRMTIRLNVSYAPKNLTVTIYQGADSVSTILKNGSSLPISEGQSLRLICSTDSYPPANLSWSWDNLTLCPSKLSKPGLLELFPVHLKHGGVYTCQAQHALGSQHISLSLSPQSSATLSEMMMGTFVGSGVTALLFLSVCILLLAVRSYRRKPARPAVVAPHPDALKVSVSQNPLVESQADDSSEPLPSILEAAPSSTEEEIHYATLSFHEMKPMNLWGQQDTTTEYSEIKFPQRTAWP
modifications: tyrosine phosphorylation (enhanced in infected macrophages), residues not stated
